The list shows a part of the results.

By UniProt entry, the sequences of proteins in these tests, tags left out.
UniProt Q0JBA9, entry or part of it: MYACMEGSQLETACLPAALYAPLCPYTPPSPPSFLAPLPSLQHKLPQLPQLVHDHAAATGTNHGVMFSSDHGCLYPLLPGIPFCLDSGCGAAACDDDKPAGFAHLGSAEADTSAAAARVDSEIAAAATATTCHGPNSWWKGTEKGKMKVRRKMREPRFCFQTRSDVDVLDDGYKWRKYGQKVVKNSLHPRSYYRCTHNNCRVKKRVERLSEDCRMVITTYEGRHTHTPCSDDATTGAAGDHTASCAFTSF

For this experiment, the target named is OsWRKY34 (Oryza sativa, UniProt Q0JBA9 1-250). Briefly: protein-binding microarray (RPBM); PBS, 2% BSA, 51.3 ng/ul salmon testes DNA, 50 uM zinc acetate, 200 nM TF, 25 C, 1 h; high values mean tight binding. The settings on record: protein: recombinant; tags: N-terminal polyhistidine and DsRed monomer fusion (pET32a); label: CyDye5-dUTP incorporated in the synthesized complementary strand; 3' TTTTT single-stranded linker to array surface; dsDNA, one strand shown. In a few lines: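 The binding signal is fluorescence intensity per array feature (arbitrary units). Readings came from an Axon 4000B scanner after a washed, 2% BSA-blocked, double-stranded custom Agilent array had been incubated for 1 h at 25 °C with 200 nM protein and 50 µM zinc acetate. The protein was a Ni–NTA-purified transcription factor fused N-terminally to polyhistidine and DsRed, expressed in E. coli BL21-CodonPlus.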
Turning to “TCCCTTCATTTTTTTTCTTTGACGTTGGTTAGCTCAAAAACGGAGTCACCTAGTGCAG”, the binding signal was 9120 fluorescence intensity (a.u.).

Turning to “ACCCATCTCTCTTCTCGAGCATGAACAATCTCGATTACATCGGAGTCACCTAGTGCAG”, the binding signal was 8520 fluorescence intensity (a.u.).

With “GCAGCTCCTTTTTTTCTCCTATGGACTCACGACTCAGTCACGGAGTCACCTAGTGCAG”, the binding signal was 8260 fluorescence intensity (a.u.).

In the case of “GGTTTGGGACCTGCTGTTGCGCACCTATATCAACACCAACCGGAGTCACCTAGTGCAG”, the binding signal was 13200 fluorescence intensity (a.u.).

As for “CGGACTTCGTTTTTGTTTATTTACTGAGGAGACCTTTTTTCGGAGTCACCTAGTGCAG”, the binding signal was 9170 fluorescence intensity (a.u.).

Turning to “CCACTAGAACTGTCATTCGAGTGGTATCCTTGCAATATTCCGGAGTCACCTAGTGCAG”, the binding signal is 8640 fluorescence intensity (a.u.).

“CCAGTCTATTTTGTGTTGGCTTTCCTGTTCGGTGTTGATGCGGAGTCACCTAGTGCAG”: the binding signal was 8310 fluorescence intensity (a.u.).

As to “CACTACACTACTCTGGTCCACGCGCCGCGAGAACTACTCGCGGAGTCACCTAGTGCAG”, the binding signal was 8900 fluorescence intensity (a.u.).

Consider “ATCTTTAACAGGGAGCCGATGAAGAAATTTCAACGTTGTCCGGAGTCACCTAGTGCAG”, for which the binding signal was 8050 fluorescence intensity (a.u.).

On to “TCACACCCTTCCATTTTTTTCCCCTGTGCCACCCCAATTCCGGAGTCACCTAGTGCAG”, for which the binding signal was 9490 fluorescence intensity (a.u.).

Take “GCTTGATATACTATTTTCATGATGTGGTTCTTTTAAATTCCGGAGTCACCTAGTGCAG”: the binding signal is 11200 fluorescence intensity (a.u.).

On to “CGCCATATTTCTTTTTTTTCTCTATATTCCTTTTCTATCTCGGAGTCACCTAGTGCAG”, for which the binding signal was 12300 fluorescence intensity (a.u.).

In the case of “GCTTTCTCATTTACCTATATAAATCCTGACATGATTTCAGCGGAGTCACCTAGTGCAG”, the binding signal is 9400 fluorescence intensity (a.u.).

For the sequence “TACTCAACATGCTGCTCACGCCACAGCTCTAACCTGAAGCCGGAGTCACCTAGTGCAG”, the binding signal is 8200 fluorescence intensity (a.u.).

For “CGGCAGTTTGGATGATTTTTTTTGTTCCCAGTTGTTTAACCGGAGTCACCTAGTGCAG”, the binding signal is 8130 fluorescence intensity (a.u.).

As for “ATGCTGAATTGGGTTGGGCTGGGGAGGAATTATAGACTATCGGAGTCACCTAGTGCAG”, the binding signal was 17500 fluorescence intensity (a.u.).

Consider “GCGCGCCCAAACGTCCAATCACCCACGGCCGCGCGGGCCCCGGAGTCACCTAGTGCAG”, for which the binding signal was 8300 fluorescence intensity (a.u.).

With “TCTCGGTGACGGCGGCCTCGTCCCACTCCCGCCCGGGGATCGGAGTCACCTAGTGCAG”, the binding signal is 8470 fluorescence intensity (a.u.).

Consider “GCCGCCGATCTACCTCCGCCGCCGCGCCCTCCCCTCGCCGCGGAGTCACCTAGTGCAG”, for which the binding signal was 10200 fluorescence intensity (a.u.).

As to “TTTTCCTGTGGTTCAATCATACGGTCATTCCTGTGTTTTTCGGAGTCACCTAGTGCAG”, the binding signal was 11400 fluorescence intensity (a.u.).

For “TAATCTTTAAACGTTGGTCTGGTTGAGTCCTTAATTCACCCGGAGTCACCTAGTGCAG”, the binding signal was 8510 fluorescence intensity (a.u.).

In the case of “TACATCCTCCGTTTCACAATGTAAGTCATTCTAGCATTTTCGGAGTCACCTAGTGCAG”, the binding signal was 10500 fluorescence intensity (a.u.).

For the sequence “TGCTCTGCCTTTTGCTCCTATAGCTTTTCTGAAAACATTGCGGAGTCACCTAGTGCAG”, the binding signal was 8130 fluorescence intensity (a.u.).

In the case of “CGTTTGCTTAGTTACGTATCACTGCTATCTTTGTCCCATACGGAGTCACCTAGTGCAG”, the binding signal was 8170 fluorescence intensity (a.u.).

As to “CTTATTTGTAGCTTCCTTTTTTTTTCCTTTTTCTTTTATTCGGAGTCACCTAGTGCAG”, the binding signal is 10400 fluorescence intensity (a.u.).

As to “ACATCCACAACCATCTCCACCTCACCTCGTCCATCGTCTCCGGAGTCACCTAGTGCAG”, the binding signal is 8700 fluorescence intensity (a.u.).

For “TTTTTGTTTTCTCAATTCGCGAATTTAATGCTTTTGTGTACGGAGTCACCTAGTGCAG”, the binding signal was 9750 fluorescence intensity (a.u.).

As for “CTAATACGTGGGTCTCACTATTGTCTTCTTGTTTGACTGACGGAGTCACCTAGTGCAG”, the binding signal was 10700 fluorescence intensity (a.u.).

“CTCCAGCAGTAGTTCTTCTCGATCGACGAATCTATACACACGGAGTCACCTAGTGCAG”: the binding signal was 8160 fluorescence intensity (a.u.).

“TACGCGTCCCAACCTGCTCCACTCCCTCGGCGCTGACCACCGGAGTCACCTAGTGCAG”: the binding signal is 11500 fluorescence intensity (a.u.).

“ACCGCCGTGCTTTTCACCAGCTCACCGTGTTGCTCACCGACGGAGTCACCTAGTGCAG”: the binding signal is 10000 fluorescence intensity (a.u.).

On to “GTTATAATCGATACGTTTGTTTTTTCTATCTACTTCTGGGCGGAGTCACCTAGTGCAG”, for which the binding signal is 8540 fluorescence intensity (a.u.).

Turning to “ACTCTCCTCTCTCGTTTTCCGTGCGCACGCTTTTCAAACTCGGAGTCACCTAGTGCAG”, the binding signal is 8040 fluorescence intensity (a.u.).

As to “GCTCCAGCGACTCCGTTCCGCTTCTGCTCCCCACATTTAACGGAGTCACCTAGTGCAG”, the binding signal is 9230 fluorescence intensity (a.u.).

Regarding “AATCATTAACACATTATCAGTGTACTGCCTGCTGCCACTCCGGAGTCACCTAGTGCAG”, the binding signal was 9820 fluorescence intensity (a.u.).

“TTGTTGTAGTAGCTGCTGTGCTGTATGGTGGTAGCCAGTGCGGAGTCACCTAGTGCAG”: the binding signal was 9070 fluorescence intensity (a.u.).

Turning to “GCTGCCTTCGCATCCCACGCTGTCGCCGCTGCAGCCGCCTCGGAGTCACCTAGTGCAG”, the binding signal is 9740 fluorescence intensity (a.u.).

As to “GTTTGGATCGTTCTGTCTGTTATGCCCGTGATCTTTTCAGCGGAGTCACCTAGTGCAG”, the binding signal is 8360 fluorescence intensity (a.u.).

Consider “GCCGTCCGCCGGCCGCCGTCTCCAGCCACAGATCGCCCCTCGGAGTCACCTAGTGCAG”, for which the binding signal is 8580 fluorescence intensity (a.u.).

Take “CCTCGTGCCATCTCGCGGCTGAACAGGGGAGGGGATCCTGCGGAGTCACCTAGTGCAG”: the binding signal was 8810 fluorescence intensity (a.u.).

Consider “GGTTTCGAGTAGGTATAGGCCTTGTGCAGCATTTGGTCAACGGAGTCACCTAGTGCAG”, for which the binding signal was 8570 fluorescence intensity (a.u.).

On to “GCGTCCCTACCTCGCACTCGCGCAGTCTCTCCAAACCCTTCGGAGTCACCTAGTGCAG”, for which the binding signal was 9080 fluorescence intensity (a.u.).

The values are drawn from paper PMC7819943, “Rice protein-binding microarrays: a tool to detect cis-acting elements near promoter regions in rice”.
